Reference: the supplement of paper PMC4635364
Counter-ions that a name gives are not always drawn. The list shows a part of the results. Repeats in this data set agree poorly, so a single value says little.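 Cells: ReNCell VM human fetal ventral-midbrain neural progenitors, differentiated mitogen-free. Blinded raters compared doublecortin-stained (early neurons) or tyrosine hydroxylase-stained (dopaminergic neurons) images with untreated wells, where 0 means no change. After repeats and both raters were averaged, compounds scoring 2 or above became hits for retesting.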

test system: ReNCell VM; experiment: dopaminergic neuron differentiation score (TH+ cell fraction vs untreated, manual image score) (score (0 to 3)); higher = more TH+ dopaminergic neuron differentiation; details: library: Natural; 2 uM; 4 weeks; BDNF 10 ng/ml + GDNF 10 ng/ml

Dopaminergic neuron differentiation score, inactive:
OC1COC2C(O)COC12 (centres undefined) [1,4:3,6-dianhydromannitol] 0
CC(C)=CCC1=C(O)C(=O)c2ccccc2C1=O [2-hydroxy-3-prenylnaphthoquinone] 0
COc1ccc2c(c1OC)C(=O)N1c3ccccc3C(=O)OC21 (centres undefined) 0
C[C@H]1CCC([C@@H](C)[C@H]2CC[C@H]3[C@@H]4CC(=O)[C@H]5C[C@@H](O)CC[C@]5(C)[C@H]4CC[C@]23C)=NC1 [petiline] 0

same assay, conditions: library: Prestwick; 2 uM; 4 weeks; BDNF 10 ng/ml + GDNF 10 ng/ml

Dopaminergic neuron differentiation score, inactive:
CCCOc1cc(N)ccc1C(=O)OCCN(CC)CC [Propoxycaine hydrochloride] 1
CCN1CCC[C@H]1CNC(=O)c1c(OC)ccc(Br)c1OC [Remoxipride Hydrochloride] 0
CC(O)(P(=O)(O)O)P(=O)(O)O [Etidronic acid, disodium salt] 0
O=C1CCc2ccc(OCCCCN3CCN(c4cccc(Cl)c4Cl)CC3)cc2N1 [Aripiprazole] 0
O=C1CN(/N=C/c2ccc(-c3ccc([N+](=O)[O-])cc3)o2)C(=O)N1 [Dantrolene sodium salt] 0
